Measurements as given in patent publication US20230272055A1, “ANTI-MUTANT CALRETICULIN (CALR) ANTIBODIES AND USES THEREOF” (Incyte Corporation, priority 2021, published 2023).
At least one structure is not confirmed: it was looked up by name or label, or the drawing left a doubt.

System: CD34+ cells from human cord blood (WT cells) or an MPN patient with mutCALR
Experiment: Megakaryopoiesis with clone 74 and ruxolitinib co-treatment
Type: cell-based
Conditions: single agent (25 nM ruxolitinib or 25 μg/mL clone 74), six days, FIG. 19D

For `N#CC[C@H](C1CCCC1)n1cc(-c2ncnc3[nH]ccc23)cn1` [Ruxolitinib, ruxolitinib, reference compound], the frequency/production of megakaryocytes (WT CD34+ cells (human cord blood)) was “did not impact” and the frequency/production of megakaryocytes (mutCALR+ CD34+ cells) was “did not impact”.
